From paper PMC8058732
Results are given in words; binding and its absence hold for the method and conditions named. In cells and extracts the contact can be indirect. Some entries that bind do so weakly or less than the wild type.

Chains of the proteins cited; added tags and fusions are not shown.
UniProt O00487: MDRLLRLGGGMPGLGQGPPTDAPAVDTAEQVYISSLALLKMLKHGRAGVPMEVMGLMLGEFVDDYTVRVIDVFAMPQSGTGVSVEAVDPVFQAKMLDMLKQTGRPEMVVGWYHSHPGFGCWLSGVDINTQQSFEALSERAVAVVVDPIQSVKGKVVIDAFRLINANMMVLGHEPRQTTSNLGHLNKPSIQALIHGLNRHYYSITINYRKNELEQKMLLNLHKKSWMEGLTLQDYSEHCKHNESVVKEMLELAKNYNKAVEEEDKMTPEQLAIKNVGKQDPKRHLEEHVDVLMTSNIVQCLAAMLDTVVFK
UniProt O95863: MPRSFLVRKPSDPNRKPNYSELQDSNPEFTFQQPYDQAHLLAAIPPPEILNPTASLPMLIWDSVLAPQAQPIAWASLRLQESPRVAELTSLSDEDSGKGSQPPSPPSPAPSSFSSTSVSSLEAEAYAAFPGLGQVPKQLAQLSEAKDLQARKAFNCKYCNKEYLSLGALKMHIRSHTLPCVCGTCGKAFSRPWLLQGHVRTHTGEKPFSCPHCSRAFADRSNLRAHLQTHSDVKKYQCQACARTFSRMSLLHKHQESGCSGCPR

Legend:
[1] = target: 26S proteasome non-ATPase regulatory subunit 14 (PSMD14) (human (endogenous in KYSE 30 and KYSE 150)) (UniProt O00487); assay: co-IP; whole cell lysates of KYSE 30 (and KYSE 150) cells treated with THL or DMSO for 24 h; incubated with anti-SNAIL or anti-PSMD14 antibody or normal IgG at 4 °C overnight, protein A/G agarose beads 2 h; immunoblotting
[2] = target: SNAIL (human (endogenous in KYSE 30 and KYSE 150)) (UniProt O95863); assay: as above

Substance	binding [1]	binding [2]
SNAIL (from UniProt O95863 1-264)	binds	–
26S proteasome non-ATPase regulatory subunit 14 (PSMD14) (from UniProt O00487 1-310) (enzyme)	–	binds
